From patent US8283473B2, “Platinum complex compound and utilization of the same” (Yakult Honsha Co., Ltd, priority 2008, dated 2012)
“Also recorded” adds a separate entry of the source. Some entries share one result that the patent states for a list of compounds.

System: H460 non-small cell lung cancer cells
Experiment: In vitro cytotoxicity (inhibitory activity on cancer cell proliferation), MTT formazan absorbance assay
Settings: comparison between samples based on IC50 values
Description: <Investigation of the In Vitro Cytotoxicity (Inhibitory Activity on Cancer Cell Proliferation) for H460 Non-Small Cell Lung Cancer Cells>
On the day prior to the day of agent addition, H460 non-small cell lung cancer cells were plated onto 24-well flatbottom microplates at 12,000 to 20,000 cells/well. An aqueous solution was prepared for each sample (refer to the sample numbers in Table 1) by dissolving the sample in Q-H2O water to a concentration of 100 μM. These aqueous solutions were diluted to provide solutions with various concentrations, and 1 mL of the particular dilution was introduced into each well. After incubation of the microplate for 24 hours at 37° C., […] a 2,5-diphenyl-3-(4,5-dimethylthiazol-2-yl)tetrazolium bromide (MIT) solution (5 mg/mL) was added to each well and incubation was continued for an additional 4 hours at 37° C. 200 μL dimethyl sulfoxide (DMSO) was added to each well in order to dissolve the formazan produced and precipitated as a result of reduction of the MIT. The absorbance at 550 nm of each well was measured using a microplate reader.
The absorbance of each well was measured three times and each experiment was repeated at least three times. The IC50 value was calculated as the concentration that provided a 50% formazan production with reference to the control (no agent addition).

## [{cis-Pt(NH3)2}2(μ-OH)(μ-5-methyltetrazolato-N2,N3)](NO3)2 [sample 6]
  cytotoxicity for H460 non-small cell lung cancer cells, comparison in words: about equal to or better than that of cisplatin; also recorded: substantially better than that of AMPZ and AMTA
